The reference is the same well before dosing, and untreated signal decays as well.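 Labels refer to human fibroblasts, largely primary: uterine (C12385, HUF), lung (H6013), bone (Hs27A), adrenal (HADF), skin (WS1), plus mammary HMF and breast cancer-associated Hs343T. Cancer lines are basal-like or mesenchymal-like triple-negative breast cancer. The paper counts as hits responses shifting over 3x the replicate standard deviation. The tissue of the other fibroblasts is not given here.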
System: MDAMB231
Experiment: relative JC-1 red fluorescence (viability) vs pre-drug, coculture with fibroblast (fraction); higher = more viable cancer cells
Experimental: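 JC-1 labelled TNBC cells cocultured 1:1 (1,500 cells each) with CellTrace Violet stained primary or stromal fibroblasts in 384-well plates in FluoroBrite medium, treated with one of 42 anticancer drugs at 0.1, 1, 10 or 100 uM. JC-1 red fluorescence (mitochondrial integrity in cancer cells only) was read by plate reader every 8 h for 72 h. Values are normalised to each well's pre-drug value. The stock of one drug was tenfold lower, so its dose labels may be too high.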

CC[C@]1(O)C[C@H]2CN(CCc3c([nH]c4ccccc34)[C@@](C(=O)OC)(c3cc4c(cc3OC)N(C=O)[C@H]3[C@@](O)(C(=O)OC)[C@H](OC(C)=O)[C@]5(CC)C=CCN6CC[C@]43[C@@H]65)C2)C1 [Vincristine]
relative JC-1 red fluorescence
Conditions	8 h	16 h	24 h	32 h	40 h	48 h	56 h	64 h	72 h
0.1 µM, coculture fibroblast: C12385	0.7843	0.7106	0.798	0.69	0.653	0.661	0.642	0.693	0.709
0.1 µM, coculture fibroblast: H6013	0.88355	0.8452	0.808	0.791	0.767	0.774	0.762	0.763	0.736
0.1 µM, coculture fibroblast: H6019	0.818	0.727	0.736	0.705	0.675	0.6884	0.6737	0.715	0.701
0.1 µM, coculture fibroblast: H6076	0.817	0.743	0.6982	0.688	0.676	0.663	0.6711	0.6819	0.71
0.1 µM, coculture fibroblast: H6231	0.867	0.794	0.731	0.686	0.64	0.616	0.588	0.579	0.575
0.1 µM, coculture fibroblast: HADF	0.8949	0.846	0.7967	0.748	0.696	0.665	0.64	0.621	0.579
0.1 µM, coculture fibroblast: HCFa	0.8977	0.839	0.792	0.76	0.709	0.669	0.639	0.61	0.568
0.1 µM, coculture fibroblast: HCPF	0.851	0.761	0.719	0.699	0.653	0.621	0.595	0.59	0.594
0.1 µM, coculture fibroblast: HHSteC	0.906	0.87	0.835	0.785	0.748	0.729	0.693	0.678	0.654
0.1 µM, coculture fibroblast: HMF	0.867	0.785	0.72	0.683	0.643	0.607	0.589	0.588	0.584
0.1 µM, coculture fibroblast: HPFa	0.915	0.886	0.83	0.776	0.741	0.714	0.664	0.635	0.6
0.1 µM, coculture fibroblast: HUF	0.82	0.696	0.7577	0.621	0.572	0.5707	0.534	0.553	0.551
0.1 µM, coculture fibroblast: Hs5	0.847	0.813	0.799	0.774	0.769	0.732	0.73	0.728	0.73129
0.1 µM, coculture fibroblast: Hs27A	0.883	0.837	0.797	0.781	0.733	0.724	0.705	0.699	0.672
0.1 µM, coculture fibroblast: Hs343T	0.801	0.687	0.607	0.565	0.5109	0.48	0.45975	0.4574	0.4543
0.1 µM, coculture fibroblast: WS1	0.773	0.695	0.744	0.642	0.606	0.612	0.587	0.632	0.639
1 µM, coculture fibroblast: C12385	0.758	0.744	0.592	0.603	0.544	0.504	0.461	0.449	0.439
1 µM, coculture fibroblast: H6013	0.9058	0.8637	0.798	0.761	0.718	0.705	0.69	0.674	0.646
1 µM, coculture fibroblast: H6019	0.792	0.763	0.691	0.681	0.632	0.629	0.59	0.596	0.567
1 µM, coculture fibroblast: H6076	0.913	0.9	0.782	0.753	0.687	0.645	0.602	0.587	0.57
1 µM, coculture fibroblast: H6231	0.912	0.801	0.7262	0.697	0.645	0.618	0.572	0.561	0.545
1 µM, coculture fibroblast: HADF	0.9096	0.87	0.814	0.773	0.707	0.648	0.614	0.585	0.55
1 µM, coculture fibroblast: HCFa	0.8874	0.823	0.7675	0.73229	0.6501	0.605	0.561	0.5329	0.483
1 µM, coculture fibroblast: HCPF	0.88	0.777	0.678	0.661	0.603	0.561	0.521	0.496	0.467
1 µM, coculture fibroblast: HHSteC	0.9146	0.8616	0.8008	0.7589	0.702	0.674	0.627	0.605	0.565
1 µM, coculture fibroblast: HMF	0.8755	0.7741	0.6806	0.64	0.588	0.552	0.5114	0.489	0.482
1 µM, coculture fibroblast: HPFa	0.9551	0.928	0.837	0.79	0.731	0.695	0.626	0.604	0.557
1 µM, coculture fibroblast: HUF	0.853	0.756	0.737	0.63	0.565	0.545	0.493	0.494	0.483
1 µM, coculture fibroblast: Hs5	0.918	0.833	0.7273	0.672	0.615	0.5532	0.507	0.482	0.46
1 µM, coculture fibroblast: Hs27A	0.8928	0.8209	0.766	0.7428	0.685	0.618	0.615	0.581	0.538
1 µM, coculture fibroblast: Hs343T	0.908	0.817	0.695	0.643	0.564	0.516	0.459	0.434	0.409
1 µM, coculture fibroblast: WS1	0.76	0.723	0.584	0.562	0.497	0.464	0.421	0.42	0.409

Reference: the supplement of paper PMC6078165
